Measured values reported in patent US20250297215A1, “METHOD FOR PRODUCING MILK LIKE PRODUCTS” (SOCIETE DES PRODUITS NESTLE S.A., priority 2021, published 2025).
At least one compound was matched to its structure with a doubt left.

Columns and labels:
[1] = tested on: iPS-derived mammary-gland cells; experiment: LC-MS/MS targeted proteomic analysis of osteopontin protein secretion; type: cell-based, human; conditions: also detected with control differentiation method
Excerpt: Human osteopontin peptides—GDSVVYGLR and -YPDAVATWLNPDPSQK were specifically detected in the cell culture supernatant by LC-MS/MS (FIG. 10).
Osteopontin protein secretion was detected in the media of cultures of iPS-derived mammary-gland cells using control differentiation method, or with bone morphogenetic protein 4 (BMP4), retinoic acid (RA) and in the combination of the two factors.

[2] = tested on: human-induced pluripotent stem cell (hiPSC) line 603; experiment: Flow cytometry quantification of mammary gland progenitor cells after RA treatment; type: cell-based; conditions: RA 1 μM, day 10 to day 15, flow cytometry
[3] = tested on: human-induced pluripotent stem cell (hiPSC) line 603; experiment: Microscopic analysis of morphological changes after exposure to RA, BSA and FBS; type: cell-based; conditions: RA 1 μM, day 10 to day 15
[4] = tested on: iPSCs derived mammary gland organoids; experiment: Flow cytometry of progenitor markers, BMP4 and RA single or combined, 42 days and 31 days protocols; type: cell-based, human; conditions: 20 ng/ml BMP4, 1 μM RA, single or combination, compared to the control condition
Excerpt: In order to generate milk bioactives that closely resemble those found in human breast milk, different methods using bone morphogenetic protein 4 (BMP4) and retinoic acid (RA) in 42 days and 31 days as a shortened time-course protocol were established in a 3D-platform using iPSCs derived mammary gland organoids as a biomimetic model of the human mammary gland (FIG. 9).

[5] = tested on: human-induced pluripotent stem cell (hiPSC) line 603; experiment: Calcein-AM and ethidium homodimer-1 based flow cytometric assessment of cell viability; conditions: RA 1 μM, day 10 to day 15, compared to BSA (5%) and FBS (5%)

CC1=C(/C=C/C(C)=C/C=C/C(C)=C/C(=O)O)C(C)(C)CCC1 [RA, retinoic acid]
osteopontin protein secretion in culture media [1]: detected | EPCAM (CD326), CD49f and MUC1 (CD227) expression levels [2]: significant increase | organoid morphology [3]: transition in morphology from spheroid-shaped towards budding organoids | expression of mammary gland progenitor markers EpCAM, CD49f, MUC1 and GATA3 (induced or maintained) [4]: can induce the expression | progenitor cells viability [5]: significantly higher
